Source: doi:10.1101/2022.03.07.483334
These are yes or no findings as the source states them, for the method shown. Binding seen in cells or lysates may run through a third protein. Some entries that bind do so weakly or less than the wild type.

By UniProt entry, the sequences of proteins in these tests, tags left out. Where a name states a change or a piece, a line headed by the entry shows the natural chain unless it says otherwise. Chains listed by the source or under a name are the forms on record and can include a tag or linker.
UniProt P15976: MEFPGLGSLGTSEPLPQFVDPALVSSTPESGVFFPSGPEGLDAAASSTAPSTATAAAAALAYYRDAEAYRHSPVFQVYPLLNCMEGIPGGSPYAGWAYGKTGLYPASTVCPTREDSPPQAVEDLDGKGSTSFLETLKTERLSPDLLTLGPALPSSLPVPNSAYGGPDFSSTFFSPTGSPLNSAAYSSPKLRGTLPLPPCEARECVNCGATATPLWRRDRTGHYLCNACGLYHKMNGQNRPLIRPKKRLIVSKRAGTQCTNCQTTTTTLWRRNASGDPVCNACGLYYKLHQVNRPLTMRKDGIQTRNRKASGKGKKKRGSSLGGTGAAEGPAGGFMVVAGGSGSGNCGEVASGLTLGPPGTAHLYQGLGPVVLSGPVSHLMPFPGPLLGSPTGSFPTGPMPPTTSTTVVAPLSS
RUNX1C (in CMK cells, co-precipitated with HA-GATA1/GATA1s) (Q01196-8, form named): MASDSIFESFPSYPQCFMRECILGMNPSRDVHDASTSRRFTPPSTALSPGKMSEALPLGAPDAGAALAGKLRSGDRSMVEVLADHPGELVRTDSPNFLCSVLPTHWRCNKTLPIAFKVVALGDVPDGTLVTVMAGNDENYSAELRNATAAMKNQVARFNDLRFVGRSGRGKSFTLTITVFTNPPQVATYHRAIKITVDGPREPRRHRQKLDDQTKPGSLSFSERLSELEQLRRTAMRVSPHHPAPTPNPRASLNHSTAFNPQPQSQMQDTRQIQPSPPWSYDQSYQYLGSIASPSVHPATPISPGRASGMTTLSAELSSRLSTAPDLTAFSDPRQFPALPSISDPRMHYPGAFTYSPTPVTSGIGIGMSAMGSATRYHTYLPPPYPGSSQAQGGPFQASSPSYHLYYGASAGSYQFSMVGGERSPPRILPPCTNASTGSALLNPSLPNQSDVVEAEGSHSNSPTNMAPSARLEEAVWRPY

Target: HA-tagged GATA1 (doxycycline-inducible, in CMK cells) (UniProt P15976)
Assay: co-IP

## RUNX1C (in CMK cells, co-precipitated with HA-GATA1/GATA1s) (from UniProt Q01196-8 1-480)
  binding: binds
